A short description of the series: in vitro. The settings on record: PAMPA, pH 7.4. As for the experimental part:
To assess BBB permeability, a parallel artificial membrane permeability assay (PAMPA)-BBB was performed, which predicts passive BBB permeability using a brain lipid porcine membrane.
The prediction of the brain penetration was evaluated using a PAMPA-BBB. […] Next, 100 μL of these stock solutions were added to a solution of 1400 μL of EtOH and 3500 μL of PBS at pH 7.4, to reach 30% of EtOH concentration in the experiment. These solutions were filtered, using Filter PDVF membrane units (diameter 30 mm, pore size 0.45 μm, from Symta). After this, the acceptor 96-well microplate (Multiscreen, catalogue no. MAMCS9610, from Millipore) was filled with 180 μL of PBS/EtOH (70/30). […] After 5 min, 180 μL of each compound solution was added. 1–2 mg of each selected compound was dissolved in 1500 μL of EtOH and 3500 μL of PBS at pH 7.4, filtered, and then added to the donor 96-well plate to determine their ability to cross the brain barrier. After this, the donor plate was carefully put on the acceptor plate to form a “sandwich” and incubated for 2.5 h at 25 °C. […] A 96-well plate UV reader (Thermoscientific, Multiskan spectrum) was used to determine the concentration of compounds and commercial drugs in the acceptor and donor wells. Every sample was analyzed at three to five wavelengths, in three wells, and in two independent runs. […]

This passage reports Papp results from article PMC12818745 (ACS Chemical Neuroscience, 2025).

As usually defined, the Papp is a coefficient for how fast a substance crosses the barrier. Low readings indicate slow passage, high ones fast passage.

For `CC(C)NCC(O)COc1ccc(CC(N)=O)cc1` (stereo not shown) [Atenolol, reference compound], the Papp at 2.5 h came out at 0.42 ± 0.19 ×10⁻⁶ cm/s.
